The whole screen tested about 400,000 compounds, of which about 13,000 (3.2%) were called active. Inconclusive results, whose numbers are uncertain, are shown with a selection of clear calls. Calls come from the whole dose curve; as a rule, active = well fitted cell-killing curve with a large enough effect; inconclusive = small, poorly fitted or top-dose-only effect, or effect the other way; inactive = flat fitted curve, though single readings scatter. Potencies beside an inconclusive call are fits to weak or partial responses and may not hold up.
Test: qHTS assay for MDR1-selective chemotherapeutics: Primary screen using the drug-selected MDR subline cells KB-V1; note: nearly all actives have a fitted effect of over 60% in size
Conditions: KB-V1 MDR cells viability, CellTiter-Glo, 72 h; activity change, negative = cytotoxicity: at 46.1 µM (top of the series)
How it was run: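 Following 72 h at 37 degrees C with compound, KB-V1 cell viability was read by CellTiter-Glo luminescence, medium being phenol-red-free DMEM plus 10% FBS; concentration-response parameters came from normalized, curve-fitted qHTS data.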
In the case of CCOc1ccccc1NC(=O)NC1(C(=O)NCc2cccnc2)CCCCC1, the activity change, negative = cytotoxicity is reported as inconclusive: 21%.
For COc1cccc(NS(=O)(=O)c2ccc3c(c2)CCN3C(C)=O)c1, the Potency was inconclusive: 20.6 µM [cytotoxic, partial curve, poor fit].
With COc1ccc(C(=O)Oc2c(Sc3ccccc3)c(C)nn2-c2ccccc2)cc1OC the Potency was “inactive”.
With COc1ccc(C)cc1NC(=O)CN1CCN(S(=O)(=O)c2ccc(Cl)cc2)CC1 the Potency was inconclusive: 10.3 µM [cytotoxic, partial curve].
In the case of COc1ccc2c(CC(=O)Nc3cccc(S(=O)(=O)N4CCOCC4)c3)coc2c1, the Potency is reported as inconclusive: 23.1 µM [cytotoxic, partial curve].
For Cc1ccc(N(CC(=O)NC2CCCC2)C(=O)CCC(=O)Nc2nc(C)cs2)cc1, the Potency was inconclusive: 25.9 µM [cytotoxic, single point].
In the case of O=C(CCl)N(Cc1cccc([N+](=O)[O-])c1)c1cccc(Cl)c1, the Potency is reported as inconclusive: 29.1 µM [cytotoxic, single point].
With CCOc1ccc(NC(=O)C2CCCN(c3nc(C)cc(C)n3)C2)cc1 (centres undefined) the Potency was inconclusive: 0.0326 µM [cytotoxic, full curve].
For CC(C)N(C)Cc1cn(C)nc1-c1ccc(Oc2ccccc2)cc1, the Potency was inconclusive: 29.1 µM [cytotoxic, single point].
For CCCCc1nc(NCCNC(=O)c2ccco2)c(C#N)c2c1CSC(C)(C)C2, the Potency was active: 2.31 µM.
With O=C(N1CCCCC1)C12CC3CC(C1)CC(C(=O)N1CCCCC1)(C3)C2 the Potency was inconclusive: 20.6 µM [cytotoxic, single point].
With COc1cc(C2C(C#N)=C(N)Oc3cc(O)ccc32)cc2c1OCO2 (centres undefined) the Potency was inconclusive: 29.1 µM [cytotoxic, single point].
For CN1CCN(C2=Nc3cc(Cl)ccc3Nc3ccccc32)CC1, the Potency was inconclusive: 2.31 µM [cytotoxic, partial curve, poor fit].
With CCOc1ccc(NC(=O)c2ccc(F)c(S(=O)(=O)N3CCCC3)c2)cc1 the Potency was inconclusive: 13 µM [cytotoxic, partial curve].
In the case of COc1ccc(-c2noc(Cn3c(=O)c4ccccc4n(CC(=O)Nc4cccc(C(F)(F)F)c4)c3=O)n2)cc1, the Potency is reported as inconclusive: 29.1 µM [cytotoxic, single point].
In the case of Cc1cccc(CNC(=O)C2CCC(=O)N(C3CC3)C2)c1 (centres undefined), the Potency is reported as “inactive”.
In the case of Cc1cncc(NCc2cccc(Cl)c2)n1, the Potency is reported as “inactive”.
With CC(=O)c1cccc(NC(=O)Nc2cnn(Cc3ccc(Cl)cc3Cl)c2)c1 the Potency was active: 18.4 µM.
In the case of CCOc1ccc(N(CC)S(=O)(=O)N2CCCC(C(=O)NCc3ccc(Cl)cc3)C2)cc1 (centres undefined), the Potency is reported as inconclusive: 16.4 µM [cytotoxic, partial curve].

From PubChem BioAssay AID1347076 (National Center for Advancing Translational Sciences (NCATS), 2019)
% is set by controls: 0 for no effect and ±100 for the full control effect; potency is the fitted concentration of half-maximal effect.
